Laboratory results as given in the supplement of paper PMC10849652.
This is one part of the list.

Protein sequences, listed by entry. Tags and fused reporters are not part of them. Lines headed by an entry give the natural chain unless they say otherwise; changes in a name come on top.
UniProt Q96EV2: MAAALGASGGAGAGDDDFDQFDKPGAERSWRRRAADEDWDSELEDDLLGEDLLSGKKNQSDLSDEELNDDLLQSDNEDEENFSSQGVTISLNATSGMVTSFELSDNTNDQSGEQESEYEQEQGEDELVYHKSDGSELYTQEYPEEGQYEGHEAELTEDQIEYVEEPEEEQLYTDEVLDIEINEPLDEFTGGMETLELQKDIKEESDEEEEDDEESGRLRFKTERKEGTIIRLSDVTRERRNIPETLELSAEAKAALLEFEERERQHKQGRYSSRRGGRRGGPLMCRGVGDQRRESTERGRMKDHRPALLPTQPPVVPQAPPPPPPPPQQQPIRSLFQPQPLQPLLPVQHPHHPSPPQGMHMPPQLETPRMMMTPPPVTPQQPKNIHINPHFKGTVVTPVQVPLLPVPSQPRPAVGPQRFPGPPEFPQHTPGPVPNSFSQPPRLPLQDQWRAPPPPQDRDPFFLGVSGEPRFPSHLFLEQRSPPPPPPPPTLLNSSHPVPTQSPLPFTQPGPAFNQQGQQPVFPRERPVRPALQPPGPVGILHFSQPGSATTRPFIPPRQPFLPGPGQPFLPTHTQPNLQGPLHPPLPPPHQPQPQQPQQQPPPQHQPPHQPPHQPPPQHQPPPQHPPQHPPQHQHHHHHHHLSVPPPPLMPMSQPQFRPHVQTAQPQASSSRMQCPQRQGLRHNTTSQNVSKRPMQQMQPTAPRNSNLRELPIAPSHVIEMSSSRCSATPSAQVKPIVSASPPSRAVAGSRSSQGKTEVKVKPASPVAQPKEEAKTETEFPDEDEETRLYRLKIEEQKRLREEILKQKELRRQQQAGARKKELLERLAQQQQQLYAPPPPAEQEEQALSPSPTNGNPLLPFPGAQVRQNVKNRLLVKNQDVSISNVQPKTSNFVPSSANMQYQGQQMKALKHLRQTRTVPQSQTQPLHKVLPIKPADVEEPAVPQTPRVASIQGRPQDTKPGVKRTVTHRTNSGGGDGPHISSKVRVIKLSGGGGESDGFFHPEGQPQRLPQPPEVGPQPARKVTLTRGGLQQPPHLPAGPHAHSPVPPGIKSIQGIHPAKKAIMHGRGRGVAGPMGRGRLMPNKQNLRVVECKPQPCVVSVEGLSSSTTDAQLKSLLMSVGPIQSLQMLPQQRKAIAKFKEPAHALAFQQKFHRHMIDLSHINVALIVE
UniProt P51606: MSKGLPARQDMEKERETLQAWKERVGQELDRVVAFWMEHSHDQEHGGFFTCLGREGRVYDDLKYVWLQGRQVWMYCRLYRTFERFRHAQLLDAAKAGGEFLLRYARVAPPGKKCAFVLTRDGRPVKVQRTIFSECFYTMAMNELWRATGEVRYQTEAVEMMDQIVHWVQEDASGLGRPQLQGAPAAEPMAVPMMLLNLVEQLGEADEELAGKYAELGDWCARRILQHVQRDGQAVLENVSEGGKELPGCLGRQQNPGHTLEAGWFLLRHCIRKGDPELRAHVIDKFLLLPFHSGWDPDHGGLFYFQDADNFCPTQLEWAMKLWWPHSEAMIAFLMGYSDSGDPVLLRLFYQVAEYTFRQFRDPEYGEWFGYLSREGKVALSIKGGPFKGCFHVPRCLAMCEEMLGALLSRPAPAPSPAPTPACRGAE
UniProt P78509: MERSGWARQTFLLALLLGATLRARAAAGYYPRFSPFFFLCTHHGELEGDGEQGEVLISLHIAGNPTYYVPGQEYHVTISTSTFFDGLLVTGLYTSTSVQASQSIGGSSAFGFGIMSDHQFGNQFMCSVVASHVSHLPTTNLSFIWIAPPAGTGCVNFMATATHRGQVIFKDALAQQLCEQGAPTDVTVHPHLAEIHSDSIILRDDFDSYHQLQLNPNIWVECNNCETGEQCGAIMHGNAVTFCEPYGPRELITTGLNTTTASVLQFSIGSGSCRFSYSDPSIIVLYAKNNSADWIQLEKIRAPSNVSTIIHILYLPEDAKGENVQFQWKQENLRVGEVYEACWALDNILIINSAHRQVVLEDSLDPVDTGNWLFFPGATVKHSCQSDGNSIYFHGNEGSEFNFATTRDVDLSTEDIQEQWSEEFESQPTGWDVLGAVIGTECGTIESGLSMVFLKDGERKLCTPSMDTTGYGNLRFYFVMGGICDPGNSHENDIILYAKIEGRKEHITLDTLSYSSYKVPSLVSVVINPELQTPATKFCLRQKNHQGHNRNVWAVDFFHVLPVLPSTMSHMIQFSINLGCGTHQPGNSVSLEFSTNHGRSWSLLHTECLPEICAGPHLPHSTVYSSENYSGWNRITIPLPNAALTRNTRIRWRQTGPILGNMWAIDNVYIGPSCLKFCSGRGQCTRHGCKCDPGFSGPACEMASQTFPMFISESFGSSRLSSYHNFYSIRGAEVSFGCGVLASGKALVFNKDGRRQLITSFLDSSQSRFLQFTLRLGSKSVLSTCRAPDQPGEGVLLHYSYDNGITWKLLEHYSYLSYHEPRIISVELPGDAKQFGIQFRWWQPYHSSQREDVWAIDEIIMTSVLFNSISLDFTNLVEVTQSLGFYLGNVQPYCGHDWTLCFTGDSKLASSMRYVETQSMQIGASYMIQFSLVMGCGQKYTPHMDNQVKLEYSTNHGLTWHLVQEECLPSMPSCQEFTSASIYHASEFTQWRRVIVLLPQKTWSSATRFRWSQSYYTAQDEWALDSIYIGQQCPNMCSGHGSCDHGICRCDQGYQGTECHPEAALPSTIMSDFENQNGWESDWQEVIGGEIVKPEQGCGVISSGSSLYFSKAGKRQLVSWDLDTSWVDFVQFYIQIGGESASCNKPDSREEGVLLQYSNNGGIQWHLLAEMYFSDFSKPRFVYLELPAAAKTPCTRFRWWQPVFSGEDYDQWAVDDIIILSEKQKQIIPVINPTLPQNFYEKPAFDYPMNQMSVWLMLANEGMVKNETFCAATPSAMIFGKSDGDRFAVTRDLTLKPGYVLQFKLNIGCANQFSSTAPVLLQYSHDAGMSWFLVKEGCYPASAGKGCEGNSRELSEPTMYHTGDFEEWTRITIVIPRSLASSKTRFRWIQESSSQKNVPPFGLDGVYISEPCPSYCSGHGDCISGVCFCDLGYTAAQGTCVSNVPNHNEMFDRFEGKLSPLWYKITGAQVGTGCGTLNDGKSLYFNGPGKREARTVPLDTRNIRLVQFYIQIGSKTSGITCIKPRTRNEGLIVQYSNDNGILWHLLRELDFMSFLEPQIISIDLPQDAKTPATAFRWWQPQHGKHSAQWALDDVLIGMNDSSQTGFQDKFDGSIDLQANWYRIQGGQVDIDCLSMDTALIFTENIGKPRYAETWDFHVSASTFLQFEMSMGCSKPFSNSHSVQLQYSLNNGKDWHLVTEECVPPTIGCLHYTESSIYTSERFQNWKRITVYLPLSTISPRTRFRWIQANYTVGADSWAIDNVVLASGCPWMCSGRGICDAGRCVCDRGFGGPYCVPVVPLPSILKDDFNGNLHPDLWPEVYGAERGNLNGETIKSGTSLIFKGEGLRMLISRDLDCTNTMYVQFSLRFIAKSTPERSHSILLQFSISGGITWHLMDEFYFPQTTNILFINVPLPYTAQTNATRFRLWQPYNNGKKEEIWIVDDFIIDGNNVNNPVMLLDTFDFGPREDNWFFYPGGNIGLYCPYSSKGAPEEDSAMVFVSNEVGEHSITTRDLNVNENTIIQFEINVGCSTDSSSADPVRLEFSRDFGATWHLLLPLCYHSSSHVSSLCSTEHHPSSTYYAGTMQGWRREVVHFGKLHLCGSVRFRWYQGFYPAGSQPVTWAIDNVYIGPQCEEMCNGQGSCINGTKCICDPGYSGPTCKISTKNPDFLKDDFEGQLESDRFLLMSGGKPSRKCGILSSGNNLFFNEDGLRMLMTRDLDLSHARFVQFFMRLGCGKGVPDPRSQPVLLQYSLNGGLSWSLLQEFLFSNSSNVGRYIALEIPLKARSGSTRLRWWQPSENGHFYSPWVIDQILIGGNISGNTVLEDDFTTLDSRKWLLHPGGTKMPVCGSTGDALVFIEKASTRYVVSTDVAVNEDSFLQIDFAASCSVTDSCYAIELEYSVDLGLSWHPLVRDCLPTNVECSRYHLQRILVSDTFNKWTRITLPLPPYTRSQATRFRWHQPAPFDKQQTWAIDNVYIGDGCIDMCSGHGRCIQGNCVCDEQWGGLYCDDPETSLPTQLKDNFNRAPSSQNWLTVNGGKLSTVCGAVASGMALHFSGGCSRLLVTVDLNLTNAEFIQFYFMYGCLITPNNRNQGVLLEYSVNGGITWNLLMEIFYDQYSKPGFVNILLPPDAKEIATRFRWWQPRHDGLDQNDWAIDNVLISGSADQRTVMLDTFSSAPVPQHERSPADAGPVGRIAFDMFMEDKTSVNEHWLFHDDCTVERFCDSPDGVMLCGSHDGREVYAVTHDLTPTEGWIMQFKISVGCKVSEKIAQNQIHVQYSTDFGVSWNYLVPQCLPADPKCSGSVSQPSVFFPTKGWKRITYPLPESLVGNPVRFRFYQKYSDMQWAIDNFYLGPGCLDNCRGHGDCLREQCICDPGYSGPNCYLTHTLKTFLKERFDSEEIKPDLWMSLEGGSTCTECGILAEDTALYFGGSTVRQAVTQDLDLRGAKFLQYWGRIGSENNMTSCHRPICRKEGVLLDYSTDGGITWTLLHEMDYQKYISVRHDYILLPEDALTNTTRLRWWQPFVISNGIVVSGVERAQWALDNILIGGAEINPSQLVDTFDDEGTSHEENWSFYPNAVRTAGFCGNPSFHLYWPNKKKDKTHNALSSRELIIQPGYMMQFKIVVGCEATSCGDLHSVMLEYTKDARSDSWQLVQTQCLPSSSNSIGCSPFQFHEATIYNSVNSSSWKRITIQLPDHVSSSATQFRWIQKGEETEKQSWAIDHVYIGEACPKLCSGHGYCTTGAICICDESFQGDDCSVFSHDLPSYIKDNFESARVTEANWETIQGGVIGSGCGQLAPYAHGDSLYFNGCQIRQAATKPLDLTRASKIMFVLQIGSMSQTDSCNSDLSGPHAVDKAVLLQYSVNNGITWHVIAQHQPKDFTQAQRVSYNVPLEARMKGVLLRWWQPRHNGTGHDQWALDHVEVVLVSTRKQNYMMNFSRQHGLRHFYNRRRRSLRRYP
UniProt O00287: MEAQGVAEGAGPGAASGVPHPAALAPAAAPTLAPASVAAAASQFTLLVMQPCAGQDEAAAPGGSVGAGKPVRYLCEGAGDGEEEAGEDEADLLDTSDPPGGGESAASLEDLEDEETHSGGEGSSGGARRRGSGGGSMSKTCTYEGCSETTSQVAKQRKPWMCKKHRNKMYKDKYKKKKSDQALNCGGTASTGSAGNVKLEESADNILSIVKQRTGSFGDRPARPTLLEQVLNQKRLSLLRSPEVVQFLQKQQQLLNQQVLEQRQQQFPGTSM
UniProt P20936: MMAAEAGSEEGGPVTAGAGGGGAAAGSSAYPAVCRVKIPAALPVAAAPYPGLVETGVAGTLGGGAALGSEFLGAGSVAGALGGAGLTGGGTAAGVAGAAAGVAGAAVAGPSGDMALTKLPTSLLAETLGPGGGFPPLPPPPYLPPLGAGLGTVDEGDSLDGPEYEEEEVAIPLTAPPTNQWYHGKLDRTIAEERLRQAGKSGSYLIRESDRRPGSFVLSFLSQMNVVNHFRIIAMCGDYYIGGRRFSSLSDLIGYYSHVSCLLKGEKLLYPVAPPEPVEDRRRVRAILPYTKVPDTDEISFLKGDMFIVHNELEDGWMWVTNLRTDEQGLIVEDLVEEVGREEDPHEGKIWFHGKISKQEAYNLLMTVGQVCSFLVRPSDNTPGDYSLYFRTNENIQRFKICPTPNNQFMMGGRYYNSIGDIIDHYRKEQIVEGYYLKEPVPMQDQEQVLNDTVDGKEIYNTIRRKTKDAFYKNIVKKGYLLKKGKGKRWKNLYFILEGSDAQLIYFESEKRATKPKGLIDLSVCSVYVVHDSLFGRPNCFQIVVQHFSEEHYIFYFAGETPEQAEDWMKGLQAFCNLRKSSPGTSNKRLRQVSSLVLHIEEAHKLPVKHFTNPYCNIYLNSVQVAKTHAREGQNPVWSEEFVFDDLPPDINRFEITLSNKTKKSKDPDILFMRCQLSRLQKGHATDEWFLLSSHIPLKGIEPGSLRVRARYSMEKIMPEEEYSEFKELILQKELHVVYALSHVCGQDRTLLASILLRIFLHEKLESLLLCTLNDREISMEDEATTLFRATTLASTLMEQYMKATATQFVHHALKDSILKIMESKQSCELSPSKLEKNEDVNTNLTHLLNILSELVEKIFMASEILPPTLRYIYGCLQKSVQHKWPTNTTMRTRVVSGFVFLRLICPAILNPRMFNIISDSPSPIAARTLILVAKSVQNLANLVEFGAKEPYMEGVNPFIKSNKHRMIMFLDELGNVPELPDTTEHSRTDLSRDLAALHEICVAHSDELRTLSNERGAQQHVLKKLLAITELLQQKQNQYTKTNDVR
UniProt O43665: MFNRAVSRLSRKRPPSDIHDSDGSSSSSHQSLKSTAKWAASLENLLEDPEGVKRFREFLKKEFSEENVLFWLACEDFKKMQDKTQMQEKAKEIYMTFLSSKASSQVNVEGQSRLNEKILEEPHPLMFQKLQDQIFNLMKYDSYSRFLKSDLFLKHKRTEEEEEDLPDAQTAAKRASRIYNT

The targets below were run with CN1CC[C@H](c2c(O)cc(O)c3c(=O)cc(-c4ccccc4Cl)oc23)[C@H](O)C1 [alvocidib] (assay: log2 fold change, soluble protein after heating vs DMSO (PISA); higher = thermal stabilisation; K562 lysate, 10 uM; active = over 0.2 and 3.5 SD of the protein, either way, in both replicates (recomputed)).
Summary of the method: (§1)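 K562 pellets were dounce-homogenised in PBS pH 7.4 with 1 mM MgCl2, and the crude extract at 1 mg/mL protein was treated with 10 μM compound for 30 min. Aliquots were heated for 3 min across 48°C-58°C, pooled, and brought to 0.5% NP-40 at 4°C; soluble protein was the supernatant after 21,000xg for 90 min. Soluble protein was quantified by TMTpro 16plex LC-MS/MS with channel sums equalised, and reported as log2 fold change in thermal stability against DMSO controls, with values from duplicates.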

log2 fold change, inactive:
RBL1 (UniProt P28749) -0.08
RBBP4 (UniProt Q09028) -0.023
RCOR1 (UniProt Q9UKL0) -0.031
RBM33 (UniProt Q96EV2) 0.047
RFX1 (UniProt P22670) -0.001
RBM28 (UniProt Q9NW13) 0.015
RAVER1 (UniProt E9PAU2) 0.033
RCSD1 (UniProt Q6JBY9) -0.007
RBM39 (UniProt Q14498) -0.176
RFT1 (UniProt Q96AA3) 0.001
RENBP (UniProt P51606) -0.04
RECQL5 (UniProt O94762) 0.057
RELN (UniProt P78509) 0.026
RFXAP (UniProt O00287) -0.12
RASA3 (UniProt Q14644) -0.089
REPS1 (UniProt Q96D71) -0.025
RBM3 (UniProt P98179) 0.035
RCN3 (UniProt Q96D15) -0.025
RASA2 (UniProt Q15283) 0
RFESD isoform 2 (UniProt Q8TAC1) -0.008
RBM42 (UniProt Q9BTD8) -0.036
RASA1 (UniProt P20936) -0.018
RBMX (UniProt P38159) -0.003
RCOR3 isoform 3 (UniProt Q9P2K3) -0.005
REEP6 (UniProt Q96HR9) -0.089
RCC1L (UniProt Q96I51) -0.044
RDH10 (UniProt Q8IZV5) -0.013
RERE (UniProt Q9P2R6) -0.079
RCAN1 (UniProt P53805) -0.003
RARS2 (UniProt Q5T160) -0.023
RGS10 (UniProt O43665) 0.005
RFX5 (UniProt P48382) -0.003

What follows are targets tested with CN1CCc2c(c3ccccc3n2Cc2ccc(C(=O)NO)cc2)C1 [Tubastatin A] in the same assay as above.
Summary of the method: as §1

log2 fold change, inactive:
RBL1 (UniProt P28749) -0.056
RBBP4 (UniProt Q09028) 0.055
RCOR1 (UniProt Q9UKL0) -0.021
RBM33 (UniProt Q96EV2) -0.05
RFX1 (UniProt P22670) 0.076
RBM28 (UniProt Q9NW13) -0.101
RAVER1 (UniProt E9PAU2) 0.018
RCSD1 (UniProt Q6JBY9) 0.049
RBM39 (UniProt Q14498) -0.04
RFT1 (UniProt Q96AA3) -0.042
RENBP (UniProt P51606) 0.097
RECQL5 (UniProt O94762) -0.053
RELN (UniProt P78509) -0.051
RFXAP (UniProt O00287) 0.013
RASA3 (UniProt Q14644) -0.246
REPS1 (UniProt Q96D71) -0.018
RBM3 (UniProt P98179) -0.036
RCN3 (UniProt Q96D15) 0.002
RASA2 (UniProt Q15283) -0.078
RFESD isoform 2 (UniProt Q8TAC1) 0.025
RBM42 (UniProt Q9BTD8) -0.022
RASA1 (UniProt P20936) -0.029
RBMX (UniProt P38159) -0.03
RCOR3 isoform 3 (UniProt Q9P2K3) -0.09
REEP6 (UniProt Q96HR9) 0.045
RCC1L (UniProt Q96I51) 0.003
RDH10 (UniProt Q8IZV5) 0.015
RERE (UniProt Q9P2R6) -0.041
RCAN1 (UniProt P53805) -0.118
RARS2 (UniProt Q5T160) -0.047
RGS10 (UniProt O43665) 0.076
RFX5 (UniProt P48382) -0.009
